Results are given in words; binding and its absence hold for the method and conditions named. In cells and extracts the contact can be indirect. A yes stands for co-enrichment or nearness to the bait. Other partners may have been found.
Target: translocated EspHwt (SBP-tagged EspH) (enteropathogenic Escherichia coli (EPEC))
Assay: affinity purification with mass spectrometry; HeLa cells infected 90 min at 37°C with EPEC strains; SBP-tagged translocated EspH precipitated from lysates (50 mM Tris pH 7.4, 150 mM NaCl, 0.5% NP-40) with StAv agarose beads, 4 hrs at 4°C; on-bead digestion, LC-MS/MS, label-free quantification

Binder | binding
endogenous active Bcr related (ABR) protein (protein, UniProt Q12979 1-859) MEPLSHRGLPRLSWIDTLYSNFSYGTDEYDGEGNEEQKGPPEGSETMPYIDESPTMSPQLSARSQGGGDGVSPTPPEGLAPGVEAGKGLEMRKLVLSGFLASEEIYINQLEALLLPMKPLKATATTSQPVLTIQQIETIFYKIQDIYEIHKEFYDNLCPKVQQWDSQVTMGHLFQKLASQLGVYKAFVDNYKVALETAEKCSQSNNQFQKISEELKVKGPKDSKDSHTSVTMEALLYKPIDRVTRSTLVLHDLLKHTPVDHPDYPLLQDALRISQNFLSSINEDIDPRRTAVTTPKGETRQLVKDGFLVEVSESSRKLRHVFLFTDVLLCAKLKKTSAGKHQQYDCKWYIPLADLVFPSPEESEASPQVHPFPDHELEDMKMKISALKSEIQKEKANKGQSRAIERLKKKMFENEFLLLLNSPTIPFRIHNRNGKSYLFLLSSDYERSEWREAIQKLQKKDLQAFVLSSVELQVLTGSCFKLRTVHNIPVTSNKDDDESPGLYGFLHVIVHSAKGFKQSANLYCTLEVDSFGYFVSKAKTRVFRDTAEPKWDEEFEIELEGSQSLRILCYEKCYDKTKVNKDNNEIVDKIMGKGQIQLDPQTVETKNWHTDVIEMNGIKVEFSMKFTSRDMSLKRTPSKKQTGVFGVKISVVTKRERSKVPYIVRQCVEEVEKRGIEEVGIYRISGVATDIQALKAVFDANNKDILLMLSDMDINAIAGTLKLYFRELPEPLLTDRLYPAFMEGIALSDPAAKENCMMHLLRSLPDPNLITFLFLLEHLKRVAEKEPINKMSLHNLATVFGPTLLRPSEVESKAHLTSAADIWSHDVMAQVQVLLYYLQHPPISFAELKRNTLYFSTDV | binds
Rab12 (protein, UniProt Q6IQ22 1-340) MLLPLLRSSCFPSSSPGGGGGSGGGGGGGDPGAESRPAAQLQRGAHGPPGPLQRAEAEPGADPPRAAEAEGAPGPGARSRGAGGGGRRAEREPHACMDPGAALQRRAGGGGGLGAGSPALSGGQGRRRKQPPRPADFKLQVIIIGSRGVGKTSLMERFTDDTFCEACKSTVGVDFKIKTVELRGKKIRLQIWDTAGQERFNSITSAYYRSAKGIILVYDITKKETFDDLPKWMKMIDKYASEDAELLLVGNKLDCETDREITRQQGEKFAQQITGMRFCEASAKDNFNVDEIFLKLVDDILKKMPLDILRNELSNSILSLQPEPEIPPELPPPRPHVRCC | binds
Rab3A (protein, UniProt P20336 1-220) MASATDSRYGQKESSDQNFDYMFKILIIGNSSVGKTSFLFRYADDSFTPAFVSTVGIDFKVKTIYRNDKRIKLQIWDTAGQERYRTITTAYYRGAMGFILMYDITNEESFNAVQDWSTQIKTYSWDNAQVLLVGNKCDMEDERVVSSERGRQLADHLGFEFFEASAKDNINVKQTFERLVDVICEKMSESLDTADPAVTGAKQGPQLSDQQVPPHQDCAC | binds
Tim10 (protein, UniProt P62072 1-90) MDPLRAQQLAAELEVEMMADMYNRMTSACHRKCVPPHYKEAELSKGESVCLDRCVSKYLDIHERMGKKLTELSMQDEELMKRVQQSSGPA | binds

Source: article PMC9559323
